No constants are given. Whether binding was seen depends on the method and setting. For some assays here: In cells and extracts the contact can be indirect. Some entries that bind do so weakly or less than the wild type. For some assays here: Where a sequence is shown, tags or fusion partners need not be part of it. One block for each substance: values may come before it.
Assays:
[1] = biological target: PML-RAR (UniProt P29590); test: gel filtration and co-immunoprecipitation with anti-RAR antibodies
[2] = biological target: PML-RAR (UniProt P29590); test: co-fractionation in gel filtration and anti-RAR immunoprecipitation, anti-PML Western blot
[3] = biological target: PML (UniProt P29590); test: gel filtration of nuclear extracts and of bacterially expressed PML
[4] = biological target: T1, GST-NCoR (1782-2453) (UniProt Q60974); test: GST pull-down, in vitro translated 35S-labelled protein on GST-NCoR agarose beads
T1 sequence (looked up): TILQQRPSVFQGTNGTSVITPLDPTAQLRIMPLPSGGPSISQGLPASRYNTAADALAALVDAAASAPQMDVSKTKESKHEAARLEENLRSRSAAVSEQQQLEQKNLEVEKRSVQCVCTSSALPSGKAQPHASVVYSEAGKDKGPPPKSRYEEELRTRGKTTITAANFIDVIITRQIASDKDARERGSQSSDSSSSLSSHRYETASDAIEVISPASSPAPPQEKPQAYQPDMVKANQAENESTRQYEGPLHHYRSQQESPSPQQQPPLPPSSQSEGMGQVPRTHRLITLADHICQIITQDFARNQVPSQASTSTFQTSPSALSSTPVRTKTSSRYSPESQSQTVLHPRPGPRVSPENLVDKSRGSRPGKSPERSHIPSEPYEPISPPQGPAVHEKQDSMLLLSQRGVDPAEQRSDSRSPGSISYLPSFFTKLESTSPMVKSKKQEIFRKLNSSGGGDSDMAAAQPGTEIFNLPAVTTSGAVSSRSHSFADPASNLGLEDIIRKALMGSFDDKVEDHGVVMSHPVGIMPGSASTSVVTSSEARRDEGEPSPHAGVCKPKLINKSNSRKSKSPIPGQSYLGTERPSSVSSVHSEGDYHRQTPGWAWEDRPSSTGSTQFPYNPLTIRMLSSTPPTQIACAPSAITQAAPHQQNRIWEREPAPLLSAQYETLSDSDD

The chains behind the UniProt entries cited, without tags or fusion partners. Where a name states a change or a piece, a line headed by the entry shows the natural chain unless it says otherwise. A line that says so, or that is headed by a name, gives the form on record, which may keep a tag or linker.
PML (P29590, form named): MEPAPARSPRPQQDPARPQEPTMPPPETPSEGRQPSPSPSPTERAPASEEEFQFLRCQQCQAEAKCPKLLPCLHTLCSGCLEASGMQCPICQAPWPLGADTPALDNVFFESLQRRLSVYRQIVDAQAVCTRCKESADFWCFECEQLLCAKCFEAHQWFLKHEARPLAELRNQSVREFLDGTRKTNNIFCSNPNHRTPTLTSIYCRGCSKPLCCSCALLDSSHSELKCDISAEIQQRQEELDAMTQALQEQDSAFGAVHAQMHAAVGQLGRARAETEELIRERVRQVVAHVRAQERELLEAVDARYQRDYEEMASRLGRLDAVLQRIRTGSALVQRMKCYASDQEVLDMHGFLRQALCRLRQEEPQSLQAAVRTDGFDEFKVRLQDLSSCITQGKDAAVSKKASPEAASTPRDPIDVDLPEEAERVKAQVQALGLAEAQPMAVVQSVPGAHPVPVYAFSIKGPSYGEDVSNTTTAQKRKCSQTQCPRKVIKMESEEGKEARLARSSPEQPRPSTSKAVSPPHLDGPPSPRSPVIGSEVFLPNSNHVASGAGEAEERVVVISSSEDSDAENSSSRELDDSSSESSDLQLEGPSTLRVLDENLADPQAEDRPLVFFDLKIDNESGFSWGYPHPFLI

[5] = biological target: T1, GST-NCoR (1782-2453); test: GST pull-down with 150 ng to 10 µg GST-NCoR on agarose beads
[6] = biological target: PML-RAR (UniProt P29590); test: gel filtration of in vitro translated and bacterially expressed PML-RAR
[7] = biological target: PML-RAR (UniProt P29590); test: gel filtration; also PML-RAR purified from nuclear extracts by DNA affinity
[8] = biological target: PML-RAR (UniProt P29590); test: molecular mass from Stokes radius (gel filtration) and sedimentation coefficient (sucrose gradient)
[9] = biological target: PML-RAR (UniProt P29590); test: in vivo cross-linking with DTBP, gel filtration, anti-PML immunoprecipitation
[10] = biological target: PML-RAR (UniProt P29590); test: resistance to 2M KCl, 1% Triton or NP-40, 50 mM DTT (unpublished data)
[11] = biological target: T1, GST-NCoR (1782-2453); test: GST pull-down, in vitro translated 35S-labelled protein, increasing GST-NCoR

binding [1]: binds | binding [2]: binds | binding [3]: binds
Substance: PML (from UniProt P29590 1-633)

binding [4]: binds | binding [5]: binds | binding [6]: binds | binding [7]: binds | binding [8]: binds | binding [9]: binds | binding [10]: binds
Substance: PML-RAR (from UniProt P29590 1-552; P10276 61-462)

binding [11]: binds
Substance: p53-RAR (from UniProt P04637 325-356; P10276 1-462)

Source: patent publication US20030207791A1, “Materials and methods relating to the treatment of leukaemias” (priority 2000, published 2003)
